Source: publication PMC5735095
These are yes or no findings as the source states them, for the method shown. Binding seen in cells or lysates may run through a third protein. Here binding means that the protein was enriched with, or labelled near, the bait; the list need not be complete.

By UniProt entry, the sequences of proteins in these tests, tags left out.
UniProt P12235: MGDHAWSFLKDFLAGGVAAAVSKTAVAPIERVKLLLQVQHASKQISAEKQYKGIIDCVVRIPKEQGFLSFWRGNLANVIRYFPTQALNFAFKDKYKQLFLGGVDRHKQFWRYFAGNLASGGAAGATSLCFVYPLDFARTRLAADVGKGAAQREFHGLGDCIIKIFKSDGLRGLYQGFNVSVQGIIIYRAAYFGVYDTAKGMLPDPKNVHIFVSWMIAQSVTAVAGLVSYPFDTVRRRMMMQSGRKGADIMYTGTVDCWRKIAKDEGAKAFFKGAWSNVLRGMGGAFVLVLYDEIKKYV

Molecular target: GST-SHP2 fusion protein (human) (UniProt Q06124)
Assay: affinity purification with mass spectrometry; GST pull-down with GST-SHP2 as bait, silver staining, bound proteins identified by mass spectrometry; source of the prey proteins not stated; only the target purified

binding: binds
Substance: ANT1 identified by mass spectrometry among the proteins pulled down by GST-SHP2 (from UniProt P12235 1-298)
